Results taken from patent US20200002323A1, “COMPOUNDS” (GLAXOSMITHKLINE INTELLECTUAL PROPERTY DEVELOPMENT LIMITED, priority 2017, published 2020).
Some results were stated once for a whole list of compounds, not compound by compound.

Chains of the proteins cited; added tags and fusions are not shown. A line that says so, or that is headed by a name, gives the form on record, which may keep a tag or linker.
UniProt Q5S007, with tags, fused parts or gaps R50H: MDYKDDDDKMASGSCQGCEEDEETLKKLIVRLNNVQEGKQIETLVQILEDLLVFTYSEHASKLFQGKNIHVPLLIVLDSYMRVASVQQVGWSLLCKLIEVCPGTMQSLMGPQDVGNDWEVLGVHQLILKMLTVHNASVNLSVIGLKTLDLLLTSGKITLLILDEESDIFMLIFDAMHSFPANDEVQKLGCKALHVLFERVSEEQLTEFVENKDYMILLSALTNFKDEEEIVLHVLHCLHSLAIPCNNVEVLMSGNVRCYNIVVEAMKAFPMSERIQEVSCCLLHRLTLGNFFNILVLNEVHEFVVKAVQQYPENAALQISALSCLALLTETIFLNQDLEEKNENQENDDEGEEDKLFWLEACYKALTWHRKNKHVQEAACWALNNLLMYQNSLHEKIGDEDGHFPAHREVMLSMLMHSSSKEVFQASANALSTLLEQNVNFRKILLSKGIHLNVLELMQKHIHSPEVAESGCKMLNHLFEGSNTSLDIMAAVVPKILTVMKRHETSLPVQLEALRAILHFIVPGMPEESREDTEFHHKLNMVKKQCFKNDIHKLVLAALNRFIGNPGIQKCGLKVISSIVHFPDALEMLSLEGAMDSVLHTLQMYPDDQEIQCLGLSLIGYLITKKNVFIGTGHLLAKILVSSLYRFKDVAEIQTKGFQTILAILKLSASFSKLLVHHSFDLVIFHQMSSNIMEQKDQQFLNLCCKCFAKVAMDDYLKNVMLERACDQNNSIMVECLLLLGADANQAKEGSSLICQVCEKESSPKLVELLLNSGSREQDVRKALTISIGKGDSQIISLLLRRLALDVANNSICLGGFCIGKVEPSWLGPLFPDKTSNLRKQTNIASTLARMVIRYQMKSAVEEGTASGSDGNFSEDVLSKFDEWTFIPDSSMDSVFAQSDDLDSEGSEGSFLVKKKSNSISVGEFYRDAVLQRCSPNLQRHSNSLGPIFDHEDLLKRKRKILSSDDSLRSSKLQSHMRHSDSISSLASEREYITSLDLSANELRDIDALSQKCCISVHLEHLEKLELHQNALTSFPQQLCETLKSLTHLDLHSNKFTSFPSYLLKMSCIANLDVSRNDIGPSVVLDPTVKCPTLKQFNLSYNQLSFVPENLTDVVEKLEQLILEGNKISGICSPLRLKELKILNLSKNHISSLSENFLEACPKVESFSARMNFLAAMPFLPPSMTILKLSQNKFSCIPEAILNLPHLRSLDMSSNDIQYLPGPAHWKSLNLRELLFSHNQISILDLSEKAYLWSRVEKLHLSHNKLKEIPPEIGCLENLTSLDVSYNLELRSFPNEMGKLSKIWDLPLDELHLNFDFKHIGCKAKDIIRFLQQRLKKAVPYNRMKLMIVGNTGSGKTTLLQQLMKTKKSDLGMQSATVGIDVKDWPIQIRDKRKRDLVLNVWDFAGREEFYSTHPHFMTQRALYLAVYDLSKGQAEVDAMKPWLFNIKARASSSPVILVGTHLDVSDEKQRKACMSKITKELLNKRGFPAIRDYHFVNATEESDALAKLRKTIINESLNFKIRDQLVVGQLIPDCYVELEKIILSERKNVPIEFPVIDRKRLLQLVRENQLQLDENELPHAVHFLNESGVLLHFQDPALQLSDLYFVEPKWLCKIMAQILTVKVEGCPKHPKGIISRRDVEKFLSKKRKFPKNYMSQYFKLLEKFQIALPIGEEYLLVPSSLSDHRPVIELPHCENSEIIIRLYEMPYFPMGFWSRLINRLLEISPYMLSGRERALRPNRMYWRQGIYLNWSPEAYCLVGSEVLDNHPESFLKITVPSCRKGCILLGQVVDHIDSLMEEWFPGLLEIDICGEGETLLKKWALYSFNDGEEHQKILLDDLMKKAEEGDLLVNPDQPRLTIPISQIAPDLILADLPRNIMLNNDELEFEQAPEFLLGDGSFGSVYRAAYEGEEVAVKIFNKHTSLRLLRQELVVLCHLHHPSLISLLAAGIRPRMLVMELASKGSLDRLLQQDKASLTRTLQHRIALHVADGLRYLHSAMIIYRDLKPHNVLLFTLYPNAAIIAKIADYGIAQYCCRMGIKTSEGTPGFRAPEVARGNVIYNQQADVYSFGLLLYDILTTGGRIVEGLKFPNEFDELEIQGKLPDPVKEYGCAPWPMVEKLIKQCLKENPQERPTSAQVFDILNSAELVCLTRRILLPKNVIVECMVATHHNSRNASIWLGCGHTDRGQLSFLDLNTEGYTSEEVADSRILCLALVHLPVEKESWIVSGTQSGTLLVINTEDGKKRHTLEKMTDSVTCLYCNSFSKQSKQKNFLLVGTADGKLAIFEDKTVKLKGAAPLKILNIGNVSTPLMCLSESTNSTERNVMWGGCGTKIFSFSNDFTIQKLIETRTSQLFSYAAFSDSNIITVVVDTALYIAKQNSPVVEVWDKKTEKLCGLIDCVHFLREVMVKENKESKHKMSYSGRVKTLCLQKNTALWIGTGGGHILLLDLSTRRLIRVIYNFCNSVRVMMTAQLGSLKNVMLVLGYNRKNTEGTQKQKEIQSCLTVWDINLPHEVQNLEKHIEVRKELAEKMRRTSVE

Tests used:
[1] = target: T1, Full length G2019 human LRRK2 (Homo sapiens, UniProt Q5S007, R50H); experiment: Full length G2019 human LRRK2 Inhibition Mass Spectrometry assay; assay type: biochemical; conditions: LRRKtide substrate 25 uM, 2 mM ATP, 25 nM LRRK2 enzyme, RapidFire mass spectrometry
T1 construct: purified recombinant Full length Flag-LRRK2; made in house; host or cells: HEK293 6E cells transduced with BacMam virus

[2] = target: T2, recombinant full length LRRK2 protein over-expressed in SH-SY5Y cells (Homo sapiens, UniProt Q5S007); experiment: Recombinant cellular LRRK2 AlphaScreen assay (LRRK2 Ser935 phosphorylation); assay type: cell-based; conditions: human neuroblastoma SH-SY5Y cells over-expressing recombinant full length LRRK2, 60 minutes compound incubation
T2 construct: engineered to over-express recombinant full length LRRK2 protein; host or cells: SH-SY5Y human neuroblastoma cells transduced with BacMam LRRK2 virus
Description: b. Recombinant Cellular LRRK2 AlphaScreen Assay
To determine the activity of compounds against LRRK2 kinase activity in cells, the observed LRRK2 kinase-dependent modulation of LRRK2 Ser 935 phosphorylation (Dzamko et al., 2010, Biochem. J. 430: 405-413) was utilized to develop a quantitative 384 well plate-based immunoassay of LRRK2 Ser935 phosphorylation in the human neuroblastoma cell line SH-SY5Y, engineered to over-express recombinant full length LRRK2 protein.
A BacMam virus expressing full length recombinant LRRK2 was purchased from Invitrogen and amplified by inoculation of SF-9 cells at MOI 0.3 for 4-5 days in Sf-900 III SFM medium supplemented with 3% fetal bovine serum. Infected cell cultures were then centrifuged at 2000 g for 20 minutes, viral supernatant titer determined by anti-gp64 plaque assay and stored at 4° C.
Affinity-purified anti-phospho LRRK2 Ser935 sheep polyclonal antibody (Dzamko et al., 2010, Biochem. J. 430: 405-413) was biotinylated by standard methods (PerkinElmer). Anti-LRRK2 rabbit polyclonal antibody was purchased from Novus Biologicals. AlphaScreen Protein A IgG Kit (including acceptor and donor beads) was purchased from Perkin Elmer.
SH-SY5Y cells were grown in DMEM/F12 medium with 10% dialysed fetal bovine serum and harvested by treatment with 0.5% trypsin-EDTA for 5 minutes at 37° C. followed by centrifugation at 1000 rpm for 4 minutes. The cell pellet was resuspended in Opti-MEM reduced serum media (Invitrogen) at 200,000 cells/ml and mixed with the BacMam LRRK2 virus at M01=50. 50 μl cell solutions were then dispensed to each well of a 384-well plate and incubated at 37° C., 5% CO2 for 24 hours.
Serial dilutions of test compounds were prepared in Opti-MEM reduced serum media (Invitrogen) and 5.6 ul transferred from compound plate to cell assay plate to achieve a top final assay concentration of 10 uM. DMSO was used in certain wells as controls. Cells were incubated at 37° C., 5% CO2 for 60 minutes. The medium was then removed and cells lysed by addition of 20 ul cell lysis buffer (Cell Signaling Technology) and incubation at 4° C. for 20 minutes. 10 ul of antibody/acceptor bead mix [(1/1000 biotinylated-pS935 LRRK2 antibody, 1/1000 total-LRRK2 antibody, 1/100 Acceptor beads in AlphaScreen detection buffer (25 mM Hepes (pH 7.4), 0.5% Triton X-100, 1 mg/ml Dextran 500 and 0.1% BSA)] was then added to each well and plates incubated for 2 hours at ambient temperature in the dark. 10 μl of donor beads solution (1/33.3 donor beads in AlphaScreen detection buffer) was then added to each well. Following incubation for a further 2 hours at ambient temperature in the dark, plates were read on an EnVision™ plate reader at emission 520-620 nm with excitation 680 nm. Dose response curve data was based on sigmoidal dose-response model.

Row | SMILES | pIC50 in the full length G2019 human LRRK2 Inhibition Mass Spectrometry assay [1] | pIC50 in the recombinant cellular LRRK2 AlphaScreen assay [2] | pIC50 in the recombinant cellular LRRK2 AlphaScreen assay ([2]; listed as Example E11) | pIC50 in the recombinant cellular LRRK2 AlphaScreen assay ([2]; listed as Example E12)
1 | COc1nc(N2CCOC[C@H]2C)cc(-n2ncc3cc(C)c(C4CCN(CCO)CC4F)cc32)n1 (single isomer, unassigned) [Example E3] | ≥ 6.5 |  |  | 
2 | COc1nc(N2CCOC[C@@H]2C)cc(-n2ncc3cc(C)c(C4CCN(CCO)CC4F)cc32)n1 (single isomer, unassigned) [Example E5] | ≥ 6.5 |  |  | 
3 | Cc1nc(N2CCOC[C@H]2C)cc(-n2ncc3cc(C)c(C4CCN(CCO)CC4F)cc32)n1 (single isomer, unassigned) [Example E10] | ≥ 6.5 | ≥ 6.5 |  | 
4 | Cc1nc(N2CCOC[C@@H]2C)cc(-n2ncc3cc(C)c(C4CCN(CCO)CC4F)cc32)n1 (single isomer, unassigned) [Example E11] | ≥ 6.5 | ≥ 7 | ≥ 6.5 | 
5 | Cc1nc(N2CCOC[C@@H]2C)cc(-n2ncc3cc(C)c(C4CCN(CCO)CC4F)cc32)n1 (single isomer, unassigned) [Example E12] |  |  |  | ≥ 6.5
6 | Cc1nc(N2CC(O)C2)cc(-n2ncc3cc(C)c(C4CCN(CCF)CC4F)cc32)n1 (single isomer, unassigned) [Example E17] | ≥ 6.5 |  |  | 
7 | Cc1nc(N2CC(O)C2)cc(-n2ncc3cc(C)c([C@@H]4CCN(CCF)C[C@@H]4F)cc32)n1 (single isomer, unassigned) [Example E18] | ≥ 6.5 | ≥ 6.5 |  | 
8 | Cc1nc(N2CCO[C@@H](CO)C2)cc(-n2ncc3cc(Cl)c(C4CCN(CC(C)O)CC4)cc32)n1 (single isomer, unassigned) [Example E25] | ≥ 6.5 |  |  | 
9 | Cc1nc(N2CCO[C@H](CO)C2)cc(-n2ncc3cc(Cl)c(C4CCN(CC(C)O)CC4)cc32)n1 (single isomer, unassigned) [Example E26] | ≥ 6.5 |  |  | 
10 | Cc1nc(N2CCO[C@@H](CO)C2)cc(-n2ncc3cc(C)c(C4CCN(CC(C)O)CC4F)cc32)n1 (single isomer, unassigned) [Example E28] | ≥ 6.5 |  |  | 
11 | Cc1nc(N2CCO[C@@H](CO)C2)cc(-n2ncc3cc(C)c(C4CCN(CC(C)O)CC4F)cc32)n1 (single isomer, unassigned) [Example E30] | ≥ 6.5 |  |  | 
12 | Cc1nc(N2CCO[C@@H](CO)C2)cc(-n2ncc3cc(C)c(C4CCN(CC(C)O)CC4F)cc32)n1 (single isomer, unassigned) [Example E31] | ≥ 6.5 |  |  | 
13 | Cc1nc(N2CCOC[C@H]2C)cc(-n2ncc3cc(C)c(C4CCN(CCO)CC4)cc32)n1 [Example E19, (R)-2-(4-(5-methyl-1-(2-methyl-6-(3-methylmorpholino)pyrimidin-4-yl)-1H-indazol-6-yl)piperidin-1-yl)ethanol] | ≥ 6.5 | ≥ 6.5 |  | 
14 | COc1nc(N2CCOC[C@H]2C)cc(-n2ncc3cc(C)c(C4CCN(CCO)CC4)cc32)n1 [Example E20, (R)-2-(4-(1-(2-methoxy-6-(3-methylmorpholino)pyrimidin-4-yl)-5-methyl-1H-indazol-6-yl)piperidin-1-yl)ethanol] | ≥ 6.5 | ≥ 6.5 |  | 
15 | COc1nc(N2CCOC[C@@H]2C)cc(-n2ncc3cc(C)c(C4CCN(CCO)CC4)cc32)n1 [Example E21, (S)-2-(4-(1-(2-methoxy-6-(3-methylmorpholino)pyrimidin-4-yl)-5-methyl-1H-indazol-6-yl)piperidin-1-yl)ethanol] | ≥ 6.5 | ≥ 6.5 |  | 
